Reference: paper PMC3406032, “Tristetraprolin Inhibits Poly(A)-Tail Synthesis in Nuclear mRNA that Contains AU-Rich Elements by Interacting with Poly(A)-Binding Protein Nuclear 1” (PLoS ONE, 2012)
No constants are given. Whether binding was seen depends on the method and setting. Binding seen in cells or lysates may run through a third protein. Some results given as binding are weak or reduced against the parent protein; the word gives no strength. For some of these results: Tags and fused reporters may be left off the sequences shown.

T1: endogenous PABPN1 of RAW264.7 cells (mouse (endogenous in RAW264.7)) (UniProt Q8CCS6)
T1 sequence: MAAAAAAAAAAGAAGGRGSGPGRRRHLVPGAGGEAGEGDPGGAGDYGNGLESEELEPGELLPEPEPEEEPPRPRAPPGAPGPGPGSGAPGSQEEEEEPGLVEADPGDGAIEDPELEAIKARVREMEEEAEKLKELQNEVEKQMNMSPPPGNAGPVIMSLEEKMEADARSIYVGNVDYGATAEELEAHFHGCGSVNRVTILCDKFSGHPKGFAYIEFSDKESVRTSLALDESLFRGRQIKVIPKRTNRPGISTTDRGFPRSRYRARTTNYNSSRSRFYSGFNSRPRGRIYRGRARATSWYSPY

T2: Flag-TTP@15-306 (mouse) (UniProt P22893)
T2 sequence: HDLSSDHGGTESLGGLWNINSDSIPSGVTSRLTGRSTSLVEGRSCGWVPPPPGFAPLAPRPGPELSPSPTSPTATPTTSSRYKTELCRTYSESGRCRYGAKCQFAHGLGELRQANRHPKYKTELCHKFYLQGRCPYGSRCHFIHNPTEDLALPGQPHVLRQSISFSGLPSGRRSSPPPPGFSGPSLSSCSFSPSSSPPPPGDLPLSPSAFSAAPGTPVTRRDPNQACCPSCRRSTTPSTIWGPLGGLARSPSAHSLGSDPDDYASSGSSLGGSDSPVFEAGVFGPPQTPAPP

T3: Flag-TTP@15-319 (mouse) (UniProt P22893)
T3 sequence: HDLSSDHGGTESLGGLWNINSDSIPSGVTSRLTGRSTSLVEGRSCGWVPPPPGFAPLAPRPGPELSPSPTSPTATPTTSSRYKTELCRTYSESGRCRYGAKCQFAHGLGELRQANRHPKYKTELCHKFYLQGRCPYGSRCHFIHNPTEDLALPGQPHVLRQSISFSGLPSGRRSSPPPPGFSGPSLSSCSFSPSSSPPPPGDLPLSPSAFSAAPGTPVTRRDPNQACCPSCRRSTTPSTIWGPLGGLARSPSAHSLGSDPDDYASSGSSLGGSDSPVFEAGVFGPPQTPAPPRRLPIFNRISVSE

T4: Flag-TTP@15-186 (mouse) (UniProt P22893)
T4 sequence: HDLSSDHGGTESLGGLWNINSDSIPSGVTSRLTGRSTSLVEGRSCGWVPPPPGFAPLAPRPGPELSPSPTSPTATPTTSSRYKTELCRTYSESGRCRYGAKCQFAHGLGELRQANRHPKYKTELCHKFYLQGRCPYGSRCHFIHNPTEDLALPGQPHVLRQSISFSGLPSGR


Experiments:
[1] = molecular target: T1, endogenous PABPN1 of RAW264.7 cells (mouse (endogenous in RAW264.7)); assay: co-IP; whole-cell extracts of RAW264.7 cells, untreated or 100 ng/ml LPS for 6 h; lysates treated with calf intestinal phosphatase; 150 mM NaCl; immunoprecipitation with anti-PABPN1 at 4°C for 3 h; blot with anti-TTP
Flag-TTP@15-306 (mouse) = molecular target: T2, Flag-TTP@15-306 (mouse); assay: co-IP; cell lysates / whole-cell extracts of HEK293T cells transfected with Flag-TTP constructs (Figure S3: with Flag-p38 and dominantly negative Flag-MKK3); anti-Flag M2 agarose; blot with anti-PABPN1
Flag-TTP@15-319 (mouse) = molecular target: T3, Flag-TTP@15-319 (mouse); assay: as above
Flag-TTP@15-186 (mouse) = molecular target: T4, Flag-TTP@15-186 (mouse); assay: as above

binding [1]	binding (Flag-TTP@15-306 (mouse))	binding (Flag-TTP@15-319 (mouse))	binding (Flag-TTP@15-186 (mouse))	Binder
binds				endogenous TTP of RAW264.7 cells (protein, UniProt P22893 1-319) MDLSAIYESLQSMSHDLSSDHGGTESLGGLWNINSDSIPSGVTSRLTGRSTSLVEGRSCGWVPPPPGFAPLAPRPGPELSPSPTSPTATPTTSSRYKTELCRTYSESGRCRYGAKCQFAHGLGELRQANRHPKYKTELCHKFYLQGRCPYGSRCHFIHNPTEDLALPGQPHVLRQSISFSGLPSGRRSSPPPPGFSGPSLSSCSFSPSSSPPPPGDLPLSPSAFSAAPGTPVTRRDPNQACCPSCRRSTTPSTIWGPLGGLARSPSAHSLGSDPDDYASSGSSLGGSDSPVFEAGVFGPPQTPAPPRRLPIFNRISVSE
	binds	binds	binds	endogenous PABPN1 of HEK293T cells (protein, UniProt Q86U42 1-306) MAAAAAAAAAAGAAGGRGSGPGRRRHLVPGAGGEAGEGAPGGAGDYGNGLESEELEPEELLLEPEPEPEPEEEPPRPRAPPGAPGPGPGSGAPGSQEEEEEPGLVEGDPGDGAIEDPELEAIKARVREMEEEAEKLKELQNEVEKQMNMSPPPGNAGPVIMSIEEKMEADARSIYVGNVDYGATAEELEAHFHGCGSVNRVTILCDKFSGHPKGFAYIEFSDKESVRTSLALDESLFRGRQIKVIPKRTNRPGISTTDRGFPRARYRARTTNYNSSRSRFYSGFNSRPRGRVYRGRARATSWYSPY
